According to paper PMC4633014:
No constants are given. Whether binding was seen depends on the method and setting. Some entries that bind do so weakly or less than the wild type.

Protein sequences, listed by entry. Tags and fused reporters are not part of them. Residues count along the entry.
UniProt P61823, residues 27-150: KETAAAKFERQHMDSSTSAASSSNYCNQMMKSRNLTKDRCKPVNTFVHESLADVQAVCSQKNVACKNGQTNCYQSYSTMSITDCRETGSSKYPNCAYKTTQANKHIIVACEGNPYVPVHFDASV

Target: Ribonuclease B (RB) (UniProt P61823)
Assay: peptide or protein array; antigens spotted in triplicate on nitrocellulose-coated glass slides; blocked with 1% BSA in PBS; stained at room temperature with biotinylated lectin in 1% BSA, PBS, 0.05% Tween 20; fluorescence read-out (MFI over background); both purified

binding: binds
B1: Galanthus nivalis lectin (GNA) (protein, UniProt P30617 20-128)
chain: SCLSDNILYSGETLSTGEFLNYGSFVFIMQEDCNLVLYDVDKPIWATNTGGLSRSCFLSMQTDGNLVVYNPSNKPIWASNTGGQNGNYVCILQKDRNVVIYGTDRWATG
modifications: biotin
